Survivor count and T/C data for 27 molecules are collected here from PubChem BioAssay AID266 (DTP/NCI, 2004).

Each structure is given as a SMILES string. The list shows only some results of the screen, not a fair sample: it is rich in T/C values a quarter to a half above the control, in often repeated tests (any T/C) and in doses without a T/C. Further doses and runs are listed elsewhere. T/C: endpoint of the treated group in % of that of the vehicle group. Schedules are NCI's codes, read here as Q, the interval in days (D) or hours (H), X, the number of doses. Some T/C values carry the count of animals alive at the toxicity check (mostly the fifth day); where none is given, no animal had died by that day. Some doses have a count of surviving animals in place of a T/C: the source files T/C as zero there, which appears to mark a toxic dose or a test without result, not a measured value. Counts of survivors are from the toxicity check (mostly the fifth day) where no day follows; animals may have died later. Some doses were run more than once; the values are given in rising order.

The assay has as its system Nude mice, LX-1 lung xenograft intrarenal, tumor weight T/C. Description: NCI In Vivo Anticancer Drug Screen. Data for tumor model Human Lung LX-1 Xenograft (intrarenal inoculation) in NU/NU BALB/C (nude) mice. The settings on record: T/C endpoint: mean tumor weight change, higher T/C = larger tumour; for T/C: evaluated on day 11. As to the method: The antitumor activity of compounds was measured in mice bearing transplantable tumors. Survival or tumor size were measured and the results are expressed as the measurement made in the treated group (T) divided by the measurement made in the vehicle treated control group (C). The tumor model used in this assay is Human Lung LX-1 Xenograft (intrarenal inoculation) in NU/NU BALB/C (nude) mice
On the technique in general: A xenograft is tissue or cells of one species grown in another, often human tumour cells in immunodeficient mice.

[1] abbreviates: dose: 400.0 mg/kg/injection, schedule: Q01DX010 (sc), vehicle: Klucel (hydroxypropylcellulose) (HPC).
Setting [2] is: dose: 50.0 mg/kg/injection, schedule: Q01DX010 (sc), vehicle: saline with Tween-80.
Setting [3] is: dose: 400.0 mg/kg/injection, schedule: Q01DX010 (sc), vehicle: saline with Tween-80.
Where [4] appears, read: dose: 800.0 mg/kg/injection, schedule: Q01DX010 (sc), vehicle: Klucel (hydroxypropylcellulose) (HPC).

On to `CC(C)C(N)C(=O)Nc1nncs1` (stereo not given), for which, for the setting “dose: 1200.0 mg/kg/injection, schedule: Q04DX003 (sc), vehicle: saline”, the survivor count is listed as 3 of 6 on day 11.
`CCN(CC)Cc1cc2[nH]c3c4ccc(Cl)cc4ncc3c2cc1OC`: the survivor count (dose: 600.0 mg/kg/injection, schedule: Q04DX003 (sc), vehicle: saline with Tween-80) is given as 0 of 6 on day 11.
For `CC[C@]1(O)C[C@H]2CN(CCc3c([nH]c4ccccc34)[C@@](C(=O)OC)(c3cc4c(cc3OC)N(C=O)[C@H]3[C@@](O)(C(=O)OC)[C@H](OC(C)=O)[C@]5(CC)C=CCN6CC[C@]43[C@@H]65)C2)C1`, for the setting “dose: 1.0 mg/kg/injection, schedule: Q01DX010 (sc), vehicle: saline”, the survivor count is given as 0 of 3 on day 11.
On to `CC(C)CCCCCCCCCCCCC(=O)NCC(=O)NC1C(O)C(O)C(Nc2ncnc3nc[nH]c23)OC1C(O)CO` (stereo not given), for which the survivor count reads like this: (dose: 1.6 mg/kg/injection, schedule: Q01DX010 (sc), vehicle: saline) 1 of 3 on day 11; (dose: 3.2 mg/kg/injection, schedule: Q01DX010 (sc), vehicle: saline) 0 of 3 on day 11.
For `CNc1nc(NC)nc(NC)n1`, the T/C was 143 % of control [2 of 2 alive on day 11] (dose: 12.5 mg/kg/injection, schedule: Q01DX010 (sc), vehicle: Klucel (hydroxypropylcellulose) (HPC)) and 134 % of control [2 of 2 alive on day 11] (dose: 50.0 mg/kg/injection, schedule: Q01DX010 (sc), vehicle: Klucel (hydroxypropylcellulose) (HPC)). Further, the survivor count is reported as 1 of 2 on day 11 (dose: 200.0 mg/kg/injection, schedule: Q01DX010 (sc), vehicle: Klucel (hydroxypropylcellulose) (HPC)) and 0 of 2 on day 11 under setting [1].
With `COc1ccc2cc1Oc1ccc(cc1)C[C@H]1c3cc(c(OC)cc3CCN1C)Oc1c(OC)c(OC)cc3c1[C@H](C2)N(C)CC3`, the T/C reads like this: under setting [2], 146 % of control; under setting [3], 135 % of control.
With `O=NN(CCCl)C(=O)NC1CCCCC1`, the survivor count (dose: 64.0 mg/kg/injection, schedule: Q01DX010 (sc), vehicle: saline with Tween-80) was 0 of 3 on day 11 and 1 of 3 on day 11; the survivor count (dose: 106.65 mg/kg/injection, schedule: Q04DX003 (sc), vehicle: saline with Tween-80) is 0 of 3 on day 11; the survivor count (dose: 213.3 mg/kg/injection, schedule: Q04DX003 (sc), vehicle: saline with Tween-80) is listed as 0 of 3 on day 11.
Take `COc1ccc(N=N/N=c2\sc3cc(OC)ccc3n2C)cc1`: for the setting “dose: 600.0 mg/kg/injection, schedule: Q04DX003 (ip), vehicle: saline with Tween-80”, the survivor count was 0 of 6 on day 11.
In the case of `COc1cccc2c1C(=O)c1c(O)c3c(c(O)c1C2=O)C[C@@](O)(/C(C)=N\O)C[C@@H]3OC1CC(N)C(O)C(C)O1` (stereo not given in full), the T/C is 137 % of control (dose: 12.5 mg/kg/injection, schedule: Q04DX003 (sc), vehicle: saline) and 130 % of control (dose: 25.0 mg/kg/injection, schedule: Q04DX003 (sc), vehicle: saline). Further, the survivor count (dose: 200.0 mg/kg/injection, schedule: Q04DX003 (sc), vehicle: saline) is on record as 0 of 6 on day 11.
As to `O=C(O)[C@H](Cc1ccccc1)N1C(=O)c2ccccc2C1=O`, the survivor count (dose: 1200.0 mg/kg/injection, schedule: Q04DX003 (ip), vehicle: DMSO) is reported as 0 of 6 on day 11.
In the case of `CCOC(C)C(/C=N/NC(N)=S)=NNC(N)=S` (stereo not given), the T/C (dose: 100.0 mg/kg/injection, schedule: Q01DX010 (sc), vehicle: saline with Tween-80) is 130 % of control.
For the molecule `Cc1ccc(S(=O)(=O)NC(=O)C2C(=O)CC3(CCCCC3)CC2=O)cc1`, the T/C (dose: 1200.0 mg/kg/injection, schedule: Q04DX003 (sc), vehicle: Klucel (hydroxypropylcellulose) (HPC)) was 139 % of control.
Take `CC(C)CCC(=O)c1ccoc1`: the T/C runs as follows: (dose: 1.5 mg/kg/injection, schedule: Q01DX010 (ip), vehicle: saline with Tween-80) 132 % of control; (dose: 3.0 mg/kg/injection, schedule: Q01DX010 (ip), vehicle: saline with Tween-80) 129 % of control. Further, the survivor count reads like this: (dose: 6.0 mg/kg/injection, schedule: Q01DX010 (ip), vehicle: saline with Tween-80) 3 of 6 on day 11; (dose: 12.0 mg/kg/injection, schedule: Q01DX010 (ip), vehicle: saline with Tween-80) 0 of 6 on day 11; (dose: 24.0 mg/kg/injection, schedule: Q01DX010 (ip), vehicle: saline with Tween-80) 0 of 6 on day 11.
As for `C[Si](C)(C)O/C=C1\CCCCC1=O`, the T/C is 142 % of control (dose: 400.0 mg/kg/injection, schedule: Q04DX003 (sc), vehicle: saline with Tween-80) and 142 % of control (dose: 800.0 mg/kg/injection, schedule: Q04DX003 (sc), vehicle: saline with Tween-80).
On to `C[C@@]1(CO)[C@H](O)CC[C@@]2(C)[C@H]1CC[C@H]1C[C@@H]3C[C@@]12CC[C@@]3(O)COC(=O)CN`, for which the survivor count was 1 of 6 on day 11 (dose: 400.0 mg/kg/injection, schedule: Q01DX010 (sc), vehicle: saline + alcohol) and 0 of 6 on day 11 (dose: 800.0 mg/kg/injection, schedule: Q01DX010 (sc), vehicle: saline + alcohol).
For `CCCCCCCCNc1cc2c3c(c1)CCCN3CCC2`, the T/C (dose: 3.0 mg/kg/injection, schedule: Q04DX003 (sc), vehicle: Klucel (hydroxypropylcellulose) (HPC)) was 130 % of control.
As for `CN(C)N=Nc1cccc(C(N)=O)c1`, the survivor count (dose: 200.0 mg/kg/injection, schedule: Q04DX003 (sc), vehicle: Klucel (hydroxypropylcellulose) (HPC)) is 0 of 6 on day 11 and the survivor count (dose: 400.0 mg/kg/injection, schedule: Q04DX003 (sc), vehicle: Klucel (hydroxypropylcellulose) (HPC)) is 0 of 3 on day 11.
In the case of `C/C(=N\NC(=S)N1CCN(c2ccccn2)CC1)c1ccccn1`, the survivor count (dose: 150.0 mg/kg/injection, schedule: Q04DX003 (sc), vehicle: water) is given as 0 of 6 on day 11 and the survivor count (dose: 300.0 mg/kg/injection, schedule: Q04DX003 (sc), vehicle: water) is recorded as 0 of 6 on day 11.
Turning to `CN(C)c1nc(N(C)C)nc(N(C)C)n1`, the T/C under setting [2] is 146 % of control [2 of 2 alive on day 11]. For the same molecule, the survivor count is, setting by setting: (dose: 240.0 mg/kg/injection, schedule: Q01DX010 (sc), vehicle: saline with Tween-80) 1 of 3 on day 11; under setting [3], 0 of 2 on day 11.
Consider `O=C(NO)c1ccccc1`, for which the survivor count reads like this: under setting [1], 1 of 3 on day 11; under setting [4], 0 of 3 on day 11.
`Cc1cc(NCCCCCCCCNc2cc(C)nc3cc(N(C)C)ccc23)c2ccc(N(C)C)cc2n1`: the survivor count is, setting by setting: (dose: 75.0 mg/kg/injection, schedule: Q01DX010 (sc), vehicle: distilled water + Tween-80 + alcohol) 1 of 2 on day 11; (dose: 150.0 mg/kg/injection, schedule: Q01DX010 (sc), vehicle: distilled water + Tween-80 + alcohol) 0 of 3 on day 11; (dose: 300.0 mg/kg/injection, schedule: Q01DX010 (sc), vehicle: distilled water + Tween-80 + alcohol) 0 of 3 on day 11; (dose: 600.0 mg/kg/injection, schedule: Q04DX003 (sc), vehicle: distilled water + Tween-80 + alcohol) 3 of 6 on day 11.
As to `O=NN(CCCl)C(=O)NCCO`, the survivor count (dose: 25.0 mg/kg/injection, schedule: Q04DX003 (sc), vehicle: water) is 0 of 3 on day 11.
As for `C1CC[N-]CC1.[Cl][Pt+2][Cl].[NH-]C1CC1`, the survivor count (dose: 200.0 mg/kg/injection, schedule: Q04DX003 (sc), vehicle: water) was 0 of 4 on day 11.
As for `COc1c(C=O)c2c(c(OC)c1OC)-c1ccc(OC)c(=O)cc1[C@@H](NC(C)=O)CC2`, the survivor count (dose: 150.0 mg/kg/injection, schedule: Q04DX003 (sc), vehicle: Klucel (hydroxypropylcellulose) (HPC)) is 1 of 6 on day 11.
On to `CCOC(=O)C(N)CSC(=O)NC` (stereo not given), for which the survivor count (dose: 1200.0 mg/kg/injection, schedule: Q04DX003 (ip), vehicle: saline) is on record as 2 of 6 on day 11.
Turning to `CN(C)N=Nc1ccc(S(N)(=O)=O)cc1`, the survivor count under setting [4] is reported as 3 of 6 on day 11.
Consider `NC1=NC(=O)N2CC12` (stereo not given), for which the survivor count (dose: 400.0 mg/kg/injection, schedule: Q04DX003 (sc), vehicle: saline) is recorded as 2 of 6 on day 11.
